Test results as given in patent WO2024101382A1 (dated 2024).
No constants are given. Whether binding was seen depends on the method and setting. Some entries that bind do so weakly or less than the wild type. For some of these results: Sequences can lack the tags named with a protein.

Experiments:
[1] = target: Recombinant cynomolgus monkey LSR-Fc (cynomolgus monkey); assay: ELISA, LSR-Fc coated on plate
[2] = target: T1, Recombinant human LSR-Fc (human) (UniProt Q86X29); assay: ELISA, LSR-Fc coated on plate
T1 sequence: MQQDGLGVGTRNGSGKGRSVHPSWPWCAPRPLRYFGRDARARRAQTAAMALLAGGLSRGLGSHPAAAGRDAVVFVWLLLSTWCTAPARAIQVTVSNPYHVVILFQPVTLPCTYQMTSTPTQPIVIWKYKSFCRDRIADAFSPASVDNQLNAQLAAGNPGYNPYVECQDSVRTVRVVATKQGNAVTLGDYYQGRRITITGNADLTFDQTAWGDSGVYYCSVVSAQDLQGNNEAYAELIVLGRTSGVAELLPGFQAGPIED

[3] = target: T2, Recombinant rat LSR-Fc (rat) (UniProt Q9WU74); assay: ELISA, LSR-Fc coated on plate
T2 sequence (looked up): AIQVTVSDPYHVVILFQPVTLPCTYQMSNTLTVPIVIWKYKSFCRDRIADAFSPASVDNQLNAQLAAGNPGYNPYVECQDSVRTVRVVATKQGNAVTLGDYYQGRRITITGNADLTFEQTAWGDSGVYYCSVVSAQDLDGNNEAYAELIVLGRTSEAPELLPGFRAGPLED

[4] = target: T3, Mouse LSR on 4T1 and MC-38-mLSR-13 cells (mouse) (UniProt Q99KG5); assay: flow cytometry on mouse tumour cell lines, #27-6mF18 as primary antibody
T3 sequence (looked up): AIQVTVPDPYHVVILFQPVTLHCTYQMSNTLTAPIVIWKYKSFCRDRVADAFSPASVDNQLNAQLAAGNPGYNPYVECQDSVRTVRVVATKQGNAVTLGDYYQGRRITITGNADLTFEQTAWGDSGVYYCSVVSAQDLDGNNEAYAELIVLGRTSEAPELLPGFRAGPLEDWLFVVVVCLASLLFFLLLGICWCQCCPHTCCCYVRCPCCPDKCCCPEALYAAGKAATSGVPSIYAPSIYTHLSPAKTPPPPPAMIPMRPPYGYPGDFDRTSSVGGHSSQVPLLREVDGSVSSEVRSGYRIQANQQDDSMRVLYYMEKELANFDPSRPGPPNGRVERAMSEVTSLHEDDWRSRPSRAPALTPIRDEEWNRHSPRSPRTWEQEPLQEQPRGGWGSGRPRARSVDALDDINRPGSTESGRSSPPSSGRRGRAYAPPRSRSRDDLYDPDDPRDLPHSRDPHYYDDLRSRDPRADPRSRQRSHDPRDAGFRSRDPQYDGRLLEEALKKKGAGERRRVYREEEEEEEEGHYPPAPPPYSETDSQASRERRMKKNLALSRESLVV

Measured: binding

B1: Chicken mouse chimeric anti-LSR antibody (#27-6mF18) (antibody, V domains shown)
VH: AVTLDESGGGLQMPGGALSLVCRASGFDFSSYEMQWIRQAPGKGLEWVAGISGAGSGTRYGSAVKGRATISRDNGQSTVRLQLNNLRAEDTGIYFCARSSNIDAWGHGTEVTVST
VL: ALTQPASVSANLGGTVKITCSGGGRYAESYYYGWYQQKSPGSTPVTVIYWNDKRPSNIPSRFSGSLSGSTNTLTITGVQVEDEAVYFCGSYEDSRSAFGAGTTLTV
notes: Chicken-mouse chimeric antibody; also called anti-LSR monoclonal antibody #27-6 mF-18
binds: all assays above
